Reference: paper PMC11971047
Results are given in words; binding and its absence hold for the method and conditions named. In cells and extracts the contact can be indirect. Some results given as binding are weak or reduced against the parent protein; the word gives no strength. Sequences can lack the tags named with a protein.

Chains of the proteins cited; added tags and fusions are not shown.
UniProt Q01341: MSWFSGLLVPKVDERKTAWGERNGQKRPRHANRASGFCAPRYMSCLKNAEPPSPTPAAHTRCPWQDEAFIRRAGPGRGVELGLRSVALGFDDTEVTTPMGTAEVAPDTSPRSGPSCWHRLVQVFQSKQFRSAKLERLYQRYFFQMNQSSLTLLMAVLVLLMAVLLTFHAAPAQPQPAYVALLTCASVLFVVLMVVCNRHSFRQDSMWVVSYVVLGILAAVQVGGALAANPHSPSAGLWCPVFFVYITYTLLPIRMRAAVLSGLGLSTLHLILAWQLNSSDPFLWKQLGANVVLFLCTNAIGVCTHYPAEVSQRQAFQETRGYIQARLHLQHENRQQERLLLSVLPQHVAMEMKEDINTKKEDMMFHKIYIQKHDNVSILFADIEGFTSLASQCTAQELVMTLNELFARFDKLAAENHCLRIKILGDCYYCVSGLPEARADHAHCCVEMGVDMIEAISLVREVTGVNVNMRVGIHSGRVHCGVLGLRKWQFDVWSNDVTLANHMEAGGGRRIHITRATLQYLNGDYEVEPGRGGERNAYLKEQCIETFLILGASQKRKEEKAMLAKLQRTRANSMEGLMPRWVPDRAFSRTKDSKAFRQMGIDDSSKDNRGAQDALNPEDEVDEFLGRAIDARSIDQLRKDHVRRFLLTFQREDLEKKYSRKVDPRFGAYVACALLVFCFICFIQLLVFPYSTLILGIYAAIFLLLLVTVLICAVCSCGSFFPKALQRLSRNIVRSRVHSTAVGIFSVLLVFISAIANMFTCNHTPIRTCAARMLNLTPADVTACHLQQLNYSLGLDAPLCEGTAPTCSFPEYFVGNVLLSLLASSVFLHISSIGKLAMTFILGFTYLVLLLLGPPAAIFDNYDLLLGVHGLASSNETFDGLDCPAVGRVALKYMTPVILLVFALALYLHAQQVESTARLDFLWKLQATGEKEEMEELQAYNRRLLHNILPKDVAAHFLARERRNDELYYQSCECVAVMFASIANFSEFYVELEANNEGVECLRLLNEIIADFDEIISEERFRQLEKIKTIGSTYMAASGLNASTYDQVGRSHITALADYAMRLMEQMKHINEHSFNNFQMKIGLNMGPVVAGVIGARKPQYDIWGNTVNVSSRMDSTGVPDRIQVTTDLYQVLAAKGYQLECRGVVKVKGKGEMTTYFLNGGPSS

Target: mouse adenylyl cyclase 6, FLAG-tagged (mAC6-FLAG) (mouse) (UniProt Q01341)
Assay: co-IP; CHO K1 cells stably expressing the HA-tagged protein, transiently transfected with the FLAG-tagged partner (or mCherry as control); lysis in 20 mM TRIS/HCl pH 8, 137 mM NaCl, 2 mM EDTA, 1% NP-40; pre-cleared on uncoupled NHS beads; anti-FLAG-M2 magnetic beads overnight at 4 °C; glycine pH 3.0 elution; western blot with HA antibody

binding: binds
B1: mouse adenylyl cyclase 3, HA-tagged (mAC3-HA) (enzyme, UniProt Q8VHH7 1-1145)
chain: MPRNQGFSDPEYSAEYSAEYSVSLPSDPDRGVGRTHEISVRNSGSCLCLPRFMRLTFVPESLENLYQTYFKRQRHETLLVLVVFAALFDCYVVVMCAVVFSSDKLAPLMVAGFGLVLDIILFVLCKKGLLPDRVSRKVVPYLLWLLISAQIFSYLGLNFSRAHAASDTVGWQAFFVFSFFITLPLSLSPIVIISVVSCVVHTLVLGVTVAQQQQDELEGMQLLREILANVFLYLCAIIVGIMSYYMADRKHRKAFLEARQSLEVKMNLEEQSQQQENLMLSILPKHVADEMLKDMKKDESQKDQQQFNTMYMYRHENVSILFADIVGFTQLSSACSAQELVKLLNELFARFDKLAAKYHQLRIKILGDCYYCICGLPDYREDHAVCSILMGLAMVEAISYVREKTKTGVDMRVGVHTGTVLGGVLGQKRWQYDVWSTDVTVANKMEAGGIPGRVHISQSTMDCLKGEFDVEPGDGGSRCDYLDEKGIETYLIIASKPEVKKTAQNGLNGSAVPNGAPASSKPSSPALIETKEPNGSAHASGSTSEEAEEQEAQADNPSFPNPRRRLRLQDLADRVVDASEDEHELNQLLNEALLERESAQVVKKRNTFLLTMRFMDPEMETRYSVEKEKQSGAAFSCSCVVLFCTAMVEILIDPWLMTNYVTFVVGEVLLLILTICSMAAIFPRSFPKKLVAFSSWIDRTRWARNTWAMLAIFILVMANVVDMLSCLQYYMGPYNMTAGMELDGGCMENPKYYNYVAVLSLIATIMLVQVSHMVKLTLMLLVTGAVTALNLYAWCPVFDEYDHKRFQEKDSPMVALEKMQVLATPGLNGTDSRLPLVPSKYSMTVMMFVMMLSFYYFSRHVEKLARTLFLWKIEVHDQKERVYEMRRWNEALVTNMLPEHVARHFLGSKKRDEELYSQSYDEIGVMFASLPNFADFYTEESINNGGIECLRFLNEIISDFDSLLDNPKFRVITKIKTIGSTYMAASGVTPDVNTNGFTSSSKEEKSDKERWQHLADLADFALAMKDTLTNINNQSFNNFMLRIGMNKGGVLAGVIGARKPHYDIWGNTVNVASRMESTGVMGNIQVVEETQVILREYGFRFVRRGPIFVKGKGELLTFFLKGRDRPAAFPNGSSVTLPHQVVDNP
